Experimental data from patent US11878063B2, “Engineered ligands and uses thereof” (Children's Medical Center Corporation, priority 2019, dated 2024).
Part of at least one peptide drawing is inferred or uncertain, most often the ends. Square brackets hold non-standard residues; d marks the D form. Peptide text beside a SMILES is read from it. Aib = CC(C)(N)C(=O)O

Key:
human PTHR1 = target: T1, human PTHR1 (Homo sapiens, UniProt Q03431); assay: cAMP induction (cAMP-responsive luciferase) in HEK293 cells stably expressing human PTHR1; type: cell-based; settings: maximal cAMP response
T1 construct: expressed in transfected cells
T1 sequence (Q03431 27-593): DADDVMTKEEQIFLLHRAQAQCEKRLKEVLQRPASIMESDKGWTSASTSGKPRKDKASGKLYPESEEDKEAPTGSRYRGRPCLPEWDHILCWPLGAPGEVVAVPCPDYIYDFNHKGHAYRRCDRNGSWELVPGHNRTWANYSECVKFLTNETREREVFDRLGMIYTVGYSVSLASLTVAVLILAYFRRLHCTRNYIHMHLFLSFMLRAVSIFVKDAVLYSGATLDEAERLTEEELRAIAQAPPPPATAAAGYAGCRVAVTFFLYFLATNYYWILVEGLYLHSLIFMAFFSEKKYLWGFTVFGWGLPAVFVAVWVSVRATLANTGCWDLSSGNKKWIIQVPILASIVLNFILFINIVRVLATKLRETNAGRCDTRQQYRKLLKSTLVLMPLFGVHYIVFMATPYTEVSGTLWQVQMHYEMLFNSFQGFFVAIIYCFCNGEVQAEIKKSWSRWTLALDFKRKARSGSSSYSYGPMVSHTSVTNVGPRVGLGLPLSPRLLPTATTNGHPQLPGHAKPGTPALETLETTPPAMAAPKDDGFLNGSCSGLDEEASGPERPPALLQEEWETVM
Procedure: (§1) Measurement of cAMP response. These assays were performed as previously described^27. […] Confluent monolayers of cells were pre-incubated with CO2 independent medium containing D-luciferin (0.5 mM) at 37° C. until a stable baseline level of luminescence was established (20 min). Varying concentrations of ligands were then added, and the time course of luminescence response was recorded using BioTek plate reader.
(§2) Data calculations. Data were processed using Microsoft Excel and GraphPad Prism 6. Data from cAMP dose-response assays were analyzed using a sigmoidal dose-response model with variable slope. Data sets were statistically compared by using Student's t test (two-tailed) assuming unequal variances for the two sets.

rat PTHR1 = target: T2, rat PTHR1 (Rattus norvegicus, UniProt P25961); assay: cAMP induction in HEK293 cells stably expressing rat PTHR1; type: cell-based; settings: maximal cAMP response
T2 construct: expressed in transfected cells
T2 sequence (P25961 27-591): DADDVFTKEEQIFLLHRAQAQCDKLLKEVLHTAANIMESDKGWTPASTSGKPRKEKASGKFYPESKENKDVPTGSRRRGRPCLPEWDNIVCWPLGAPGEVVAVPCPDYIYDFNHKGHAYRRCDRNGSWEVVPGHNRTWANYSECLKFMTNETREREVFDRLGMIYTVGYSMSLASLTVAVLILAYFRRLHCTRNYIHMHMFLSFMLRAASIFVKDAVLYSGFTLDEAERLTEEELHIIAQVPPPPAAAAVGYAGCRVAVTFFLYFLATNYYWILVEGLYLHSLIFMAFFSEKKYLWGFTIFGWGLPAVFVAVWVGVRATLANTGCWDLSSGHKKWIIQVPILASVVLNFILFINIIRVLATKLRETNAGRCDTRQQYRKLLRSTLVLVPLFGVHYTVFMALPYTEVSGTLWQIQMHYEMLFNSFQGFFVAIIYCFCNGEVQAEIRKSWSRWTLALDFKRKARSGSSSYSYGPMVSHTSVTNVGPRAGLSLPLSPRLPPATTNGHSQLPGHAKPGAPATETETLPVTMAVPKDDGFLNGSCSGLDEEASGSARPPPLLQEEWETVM
Procedure: as §1, §2

CC[C@H](C)[C@H](NC(=O)[C@H](CCC(=O)O)NC(=O)C(C)(C)NC(=O)[C@@H](NC(=O)[C@H](C)N)C(C)C)C(=O)N[C@@H](CCC(N)=O)C(=O)N[C@@H](CC(C)C)C(=O)N[C@@H](CCSC)C(=O)N[C@@H](Cc1c[nH]cn1)C(=O)N[C@@H](CCC(N)=O)C(=O)N[C@@H](CS)C(N)=O [PTH(1-10)] (H-AV[Aib]EIQLMHQC-NH2; N-terminus assumed)
Max (normalized ± SD), hPTHR1 (human PTHR1): 1.03 ± 0.08 | Max (normalized ± SD), rPTHR1 (rat PTHR1): 1.09 ± 0.11
